T1: rice OsMADS24, yeast two-hybrid construct (amino acids 2 to 177) (rice (Oryza sativa), UniProt Q9SAR1 2-177)
T1 construct: MADS-box, I and K domains; the C domain was left out; also called SEP protein family member OsMADS24; rice SEP family member
T1 sequence: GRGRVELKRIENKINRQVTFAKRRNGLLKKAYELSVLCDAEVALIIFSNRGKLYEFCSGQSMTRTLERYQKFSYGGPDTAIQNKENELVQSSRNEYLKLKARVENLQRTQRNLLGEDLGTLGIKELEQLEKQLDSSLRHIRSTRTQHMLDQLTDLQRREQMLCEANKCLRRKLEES


Biological target: T1, rice OsMADS24, yeast two-hybrid …
Experiment: yeast two-hybrid (growth on SD-Leu-Trp-His-Ade and blue colour on X-gal)
Source text: FIG. 3 Depicts the results from a yeast two-hybrid assay to identify SHELL binding partners. a, Legend for plating layout. Auto-activation controls: 1, shAVROS (BD)+pGADT7; 2, shMPOB (BD)+pGADT7; 3, OsMADS24 (BD)+pGADT7; 4 ShDeliDura+pGADT7. Interaction tests: 5, shAVROS (AD)+shAVROS (BD); 6, shAVROS (AD)+shMPOB (BD); 7, shAVROS (AD)+OsMADS24 (BD); 8, OsMADS24 (AD)+shAVROS (BD); 9, shMPOB (AD)+shAVROS (BD); 10, shMPOB (AD)+shMPOB (BD); 11, shMPOB (AD)+OsMADS24 (BD); 12, OsMADS24 (AD)+shMPOB (BD); 13, shAVROS (AD)+ShDeliDura (BD); 14, shMPOB (AD)+ShDeliDura (BD); 15, ShDeliDura (AD)+ShDeliDura (BD); 16, OsMADS24 (AD)+ShDeliDura (BD); 17, ShDeliDura (AD)+shAVROS (BD); 18, ShDeliDura (AD)+shMPOB (BD); 19, ShDeliDura (AD)+OsMADS24 (BD); 20, OsMADS24 (AD)+OsMADS24 (BD); A, pGBKT7-53+pGADT7-T (positive control); B, pGBKT7-lam+pGADT7-T (negative control). Co-transformants were plated on selective media, as labeled (b-d) and on X-gal media (e). Interaction assay results are summarized in Table 1 and Supplementary Table 1. […]
Co-transformations were performed for all 16 pairwise combinations of BD and AD vectors and scored for growth on SD-Leu-Trp, SD-Leu-Trp-His, SD-Leu-Trp-His-Ade and X-gal media plates. Positive interactions were scored as blue co-tranformants (on X-gal plate) that were able to grow on SD-Leu-Trp-His-Ade selection plates (FIGS. 1 and 2).

| binding result | Binder |
| --- | --- |
| binds | SHELL protein encoded by the Sh^DeliDura allele, yeast two-hybrid construct (amino acids 2 to 175) (other, MADS-box, I and K domains; the C domain was left out; also called Sh^DURA; wild-type SHELL) GRGKIEIKRIENTTSRQVTFCKRRNGLLKKAYELSVLCDAEVALIVFSSRGRLYEYANNSIRSTIDRYKKACANSSNSGATIEINSQQYYQQESAKLRHQIQILQNANRHLMGEALSTLTVKELKQLENRLERGITRIRSKKHELLFAEIEYMQKREVELQNDNMYLRAKIAEN |
| no binding | SHELL protein encoded by the sh^MPOB allele, yeast two-hybrid construct (amino acids 2 to 175) (other, No position number is printed; Expressed as a pGADT7 (AD) or pGBKT7 (BD) fusion) GRGKIEIKRIENTTSRQVTFCKRRNGLPKKAYELSVLCDAEVALIVFSSRGRLYEYANNSIRSTIDRYKKACANSSNSGATIEINSQQYYQQESAKLRHQIQILQNANRHLMGEALSTLTVKELKQLENRLERGITRIRSKKHELLFAEIEYMQKREVELQNDNMYLRAKIAEN |

From patent US20150024388A1 (MALAYSIAN PALM OIL BOARD, published 2015)
